Source: patent US20090081707A1 (published 2009)
No constants are given. Whether binding was seen depends on the method and setting. Some results given as binding are weak or reduced against the parent protein; the word gives no strength. Blank lines part the entries; values can stand above or below the molecule they belong to.

Chains of the proteins cited; added tags and fusions are not shown. Lines headed by an entry give the natural chain unless they say otherwise; changes in a name come on top.
UniProt Q16620: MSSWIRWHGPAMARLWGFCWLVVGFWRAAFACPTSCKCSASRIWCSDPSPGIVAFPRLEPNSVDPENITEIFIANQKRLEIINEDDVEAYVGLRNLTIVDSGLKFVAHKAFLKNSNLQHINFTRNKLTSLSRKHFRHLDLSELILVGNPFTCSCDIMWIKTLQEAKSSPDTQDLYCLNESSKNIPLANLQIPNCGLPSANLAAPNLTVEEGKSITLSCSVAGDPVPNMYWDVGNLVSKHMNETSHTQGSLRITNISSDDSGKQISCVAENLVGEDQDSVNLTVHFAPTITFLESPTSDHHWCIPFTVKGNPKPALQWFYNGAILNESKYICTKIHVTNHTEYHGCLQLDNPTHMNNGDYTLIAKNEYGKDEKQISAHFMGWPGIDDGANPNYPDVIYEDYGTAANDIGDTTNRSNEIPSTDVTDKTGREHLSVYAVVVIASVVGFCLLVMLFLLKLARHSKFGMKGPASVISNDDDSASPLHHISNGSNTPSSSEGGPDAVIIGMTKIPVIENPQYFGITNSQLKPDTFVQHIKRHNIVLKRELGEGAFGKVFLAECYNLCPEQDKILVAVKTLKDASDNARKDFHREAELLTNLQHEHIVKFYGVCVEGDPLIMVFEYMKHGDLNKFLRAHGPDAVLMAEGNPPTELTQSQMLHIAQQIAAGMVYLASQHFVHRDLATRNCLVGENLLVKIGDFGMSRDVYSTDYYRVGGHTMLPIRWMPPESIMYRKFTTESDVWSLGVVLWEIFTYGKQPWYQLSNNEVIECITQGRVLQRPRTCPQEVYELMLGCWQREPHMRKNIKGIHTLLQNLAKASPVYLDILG
UniProt P18280: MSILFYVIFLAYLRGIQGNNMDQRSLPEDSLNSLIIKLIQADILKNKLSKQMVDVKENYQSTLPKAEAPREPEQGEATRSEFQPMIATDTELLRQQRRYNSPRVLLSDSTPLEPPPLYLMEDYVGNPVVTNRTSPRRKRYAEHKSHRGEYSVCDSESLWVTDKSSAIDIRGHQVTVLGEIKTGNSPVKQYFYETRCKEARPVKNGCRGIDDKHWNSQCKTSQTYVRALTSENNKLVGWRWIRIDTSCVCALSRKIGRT

Biological target: trkB-IgG immunoadhesin (chimera of human trkB extracellular domain with human IgG-1 Fc) (human) (UniProt Q16620)
Test: competitive displacement of iodinated neurotrophin from trk-IgG

binding: binds
Molecule: neurotrophin-3 (NT-3) (from UniProt P18280 140-258) (ligand)

B1: neurotrophin-4/5 (NT-4/5) (ligand)
chain: GVSETAPASRRGELAVCDAVSGWVTDRRTAVDLRGREVEVLGEVPAAGGSPLRQYFFETRCKADNAEEGGPGAGGGGCRGVDRRHWVSECKAKQSYVRALTADAQGRVGWRWIRIDTACVCTLLSRTGRA
notes: also called NT5
binding: binds
